These results are taken from the supplement of paper PMC10849652.

The chains behind the UniProt entries cited, without tags or fusion partners. Where a name states a change or a piece, a line headed by the entry shows the natural chain unless it says otherwise.
UniProt O94864: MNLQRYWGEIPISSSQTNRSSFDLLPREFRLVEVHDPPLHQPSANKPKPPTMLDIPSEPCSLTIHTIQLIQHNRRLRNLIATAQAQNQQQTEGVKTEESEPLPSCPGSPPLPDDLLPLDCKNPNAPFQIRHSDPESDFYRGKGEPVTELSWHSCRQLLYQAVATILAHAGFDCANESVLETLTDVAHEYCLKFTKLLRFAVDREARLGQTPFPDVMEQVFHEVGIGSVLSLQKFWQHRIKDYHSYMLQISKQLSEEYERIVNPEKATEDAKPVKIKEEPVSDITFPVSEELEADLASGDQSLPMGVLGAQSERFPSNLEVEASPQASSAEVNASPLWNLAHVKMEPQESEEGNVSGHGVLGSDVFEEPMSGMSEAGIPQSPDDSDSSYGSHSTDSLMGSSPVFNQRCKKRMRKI
UniProt Q6UWL2: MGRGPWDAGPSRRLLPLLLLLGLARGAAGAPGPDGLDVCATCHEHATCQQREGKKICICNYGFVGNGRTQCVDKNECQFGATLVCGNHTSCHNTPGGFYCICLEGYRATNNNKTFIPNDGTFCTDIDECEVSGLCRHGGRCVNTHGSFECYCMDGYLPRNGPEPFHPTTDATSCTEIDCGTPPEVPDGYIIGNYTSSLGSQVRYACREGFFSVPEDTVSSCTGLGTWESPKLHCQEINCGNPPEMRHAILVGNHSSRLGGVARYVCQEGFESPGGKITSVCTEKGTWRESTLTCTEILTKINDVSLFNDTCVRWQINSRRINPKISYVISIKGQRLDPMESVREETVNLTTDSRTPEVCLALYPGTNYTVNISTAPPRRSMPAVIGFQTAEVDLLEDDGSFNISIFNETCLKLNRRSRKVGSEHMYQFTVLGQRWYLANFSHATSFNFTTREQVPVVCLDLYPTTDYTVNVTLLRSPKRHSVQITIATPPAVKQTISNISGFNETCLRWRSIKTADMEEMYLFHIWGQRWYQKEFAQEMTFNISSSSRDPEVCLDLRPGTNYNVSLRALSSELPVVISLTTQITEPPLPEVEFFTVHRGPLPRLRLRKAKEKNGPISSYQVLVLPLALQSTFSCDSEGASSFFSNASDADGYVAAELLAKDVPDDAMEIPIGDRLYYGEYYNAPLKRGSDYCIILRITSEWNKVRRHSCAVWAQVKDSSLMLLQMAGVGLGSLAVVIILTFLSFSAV
UniProt Q15544, whole entry, looked up: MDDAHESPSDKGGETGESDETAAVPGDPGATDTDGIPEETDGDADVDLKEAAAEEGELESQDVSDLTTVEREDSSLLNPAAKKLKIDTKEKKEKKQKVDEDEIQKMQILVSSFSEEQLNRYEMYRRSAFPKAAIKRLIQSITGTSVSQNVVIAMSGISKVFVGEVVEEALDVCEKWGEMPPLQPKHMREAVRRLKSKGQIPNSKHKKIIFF
UniProt P08247, whole entry, looked up: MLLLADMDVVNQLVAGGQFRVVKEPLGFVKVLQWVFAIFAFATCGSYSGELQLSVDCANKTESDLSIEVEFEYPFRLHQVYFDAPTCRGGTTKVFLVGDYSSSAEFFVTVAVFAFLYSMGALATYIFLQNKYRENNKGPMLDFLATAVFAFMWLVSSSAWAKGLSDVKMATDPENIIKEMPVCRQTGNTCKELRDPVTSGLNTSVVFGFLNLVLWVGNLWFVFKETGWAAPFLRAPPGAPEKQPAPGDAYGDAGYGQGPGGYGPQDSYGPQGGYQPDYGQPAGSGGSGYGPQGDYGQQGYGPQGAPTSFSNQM
UniProt Q13033: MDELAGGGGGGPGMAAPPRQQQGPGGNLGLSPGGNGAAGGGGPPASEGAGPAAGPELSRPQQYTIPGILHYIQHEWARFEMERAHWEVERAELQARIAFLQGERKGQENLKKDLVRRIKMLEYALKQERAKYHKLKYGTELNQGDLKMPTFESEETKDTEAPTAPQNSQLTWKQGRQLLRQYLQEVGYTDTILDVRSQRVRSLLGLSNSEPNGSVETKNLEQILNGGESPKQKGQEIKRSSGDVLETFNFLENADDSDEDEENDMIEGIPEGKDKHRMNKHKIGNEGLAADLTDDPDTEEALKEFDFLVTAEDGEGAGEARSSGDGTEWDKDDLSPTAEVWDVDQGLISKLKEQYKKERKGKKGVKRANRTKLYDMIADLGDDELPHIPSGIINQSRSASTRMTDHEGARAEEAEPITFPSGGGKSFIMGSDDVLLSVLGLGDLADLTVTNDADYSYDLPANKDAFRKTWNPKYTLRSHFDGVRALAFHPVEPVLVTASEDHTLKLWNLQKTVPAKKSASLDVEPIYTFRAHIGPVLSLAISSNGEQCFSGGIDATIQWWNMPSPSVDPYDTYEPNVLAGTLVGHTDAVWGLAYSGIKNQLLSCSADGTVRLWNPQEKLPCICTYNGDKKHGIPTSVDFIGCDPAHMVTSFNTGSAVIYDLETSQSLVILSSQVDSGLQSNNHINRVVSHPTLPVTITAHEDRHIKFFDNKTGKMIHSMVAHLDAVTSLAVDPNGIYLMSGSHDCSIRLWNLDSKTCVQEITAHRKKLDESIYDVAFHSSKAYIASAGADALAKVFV
UniProt Q8N300: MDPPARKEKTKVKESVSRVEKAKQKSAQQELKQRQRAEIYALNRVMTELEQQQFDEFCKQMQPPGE
UniProt Q9ULQ0: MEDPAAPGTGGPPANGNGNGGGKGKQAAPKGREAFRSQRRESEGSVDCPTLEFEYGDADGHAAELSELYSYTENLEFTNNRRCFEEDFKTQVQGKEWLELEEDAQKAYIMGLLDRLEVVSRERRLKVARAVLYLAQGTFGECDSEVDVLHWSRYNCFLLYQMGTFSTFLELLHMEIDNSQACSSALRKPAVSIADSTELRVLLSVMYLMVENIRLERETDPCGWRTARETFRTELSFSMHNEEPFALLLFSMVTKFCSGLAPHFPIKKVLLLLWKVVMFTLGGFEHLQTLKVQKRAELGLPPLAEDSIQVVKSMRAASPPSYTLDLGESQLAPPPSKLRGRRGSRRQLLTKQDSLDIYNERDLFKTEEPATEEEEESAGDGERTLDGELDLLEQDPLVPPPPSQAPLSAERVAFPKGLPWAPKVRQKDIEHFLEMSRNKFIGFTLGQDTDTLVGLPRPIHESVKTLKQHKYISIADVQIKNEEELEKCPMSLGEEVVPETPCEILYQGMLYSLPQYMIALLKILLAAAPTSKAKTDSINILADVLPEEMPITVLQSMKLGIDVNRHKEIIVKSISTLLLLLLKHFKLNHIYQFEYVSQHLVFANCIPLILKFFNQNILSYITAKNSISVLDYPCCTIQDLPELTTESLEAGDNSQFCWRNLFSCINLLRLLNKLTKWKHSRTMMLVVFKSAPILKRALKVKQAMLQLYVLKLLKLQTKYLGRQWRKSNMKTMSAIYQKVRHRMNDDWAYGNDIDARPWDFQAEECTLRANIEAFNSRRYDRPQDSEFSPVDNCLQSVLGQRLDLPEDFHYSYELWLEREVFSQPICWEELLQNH
UniProt Q9BXI6: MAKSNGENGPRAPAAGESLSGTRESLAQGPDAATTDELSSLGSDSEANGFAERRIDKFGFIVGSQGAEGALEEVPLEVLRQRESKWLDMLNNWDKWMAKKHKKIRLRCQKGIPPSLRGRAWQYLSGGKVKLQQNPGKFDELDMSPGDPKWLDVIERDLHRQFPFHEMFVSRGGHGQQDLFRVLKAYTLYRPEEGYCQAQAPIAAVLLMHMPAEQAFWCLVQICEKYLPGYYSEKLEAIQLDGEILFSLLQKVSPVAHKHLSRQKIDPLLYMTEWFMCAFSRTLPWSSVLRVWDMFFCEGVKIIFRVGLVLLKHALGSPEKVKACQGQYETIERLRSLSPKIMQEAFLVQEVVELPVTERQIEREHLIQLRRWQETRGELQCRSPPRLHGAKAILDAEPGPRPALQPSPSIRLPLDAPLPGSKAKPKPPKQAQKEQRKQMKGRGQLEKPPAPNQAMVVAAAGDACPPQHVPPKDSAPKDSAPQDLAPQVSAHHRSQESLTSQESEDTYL
UniProt Q9Y6J9: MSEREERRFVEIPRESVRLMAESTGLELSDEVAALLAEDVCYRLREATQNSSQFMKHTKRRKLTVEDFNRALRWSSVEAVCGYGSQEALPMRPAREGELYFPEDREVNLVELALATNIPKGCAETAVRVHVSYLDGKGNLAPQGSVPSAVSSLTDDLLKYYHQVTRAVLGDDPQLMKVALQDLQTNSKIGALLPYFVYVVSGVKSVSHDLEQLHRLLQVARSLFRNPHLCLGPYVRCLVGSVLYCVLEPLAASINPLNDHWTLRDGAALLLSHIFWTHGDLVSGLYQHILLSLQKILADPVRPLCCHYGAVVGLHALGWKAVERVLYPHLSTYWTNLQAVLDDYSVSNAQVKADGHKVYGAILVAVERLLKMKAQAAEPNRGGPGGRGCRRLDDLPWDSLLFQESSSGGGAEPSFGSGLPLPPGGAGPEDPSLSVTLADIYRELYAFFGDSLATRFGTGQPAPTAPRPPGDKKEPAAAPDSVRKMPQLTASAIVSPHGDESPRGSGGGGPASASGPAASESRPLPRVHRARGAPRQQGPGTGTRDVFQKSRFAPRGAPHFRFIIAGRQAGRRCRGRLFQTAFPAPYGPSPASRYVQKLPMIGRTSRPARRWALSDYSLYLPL
UniProt Q9UL54: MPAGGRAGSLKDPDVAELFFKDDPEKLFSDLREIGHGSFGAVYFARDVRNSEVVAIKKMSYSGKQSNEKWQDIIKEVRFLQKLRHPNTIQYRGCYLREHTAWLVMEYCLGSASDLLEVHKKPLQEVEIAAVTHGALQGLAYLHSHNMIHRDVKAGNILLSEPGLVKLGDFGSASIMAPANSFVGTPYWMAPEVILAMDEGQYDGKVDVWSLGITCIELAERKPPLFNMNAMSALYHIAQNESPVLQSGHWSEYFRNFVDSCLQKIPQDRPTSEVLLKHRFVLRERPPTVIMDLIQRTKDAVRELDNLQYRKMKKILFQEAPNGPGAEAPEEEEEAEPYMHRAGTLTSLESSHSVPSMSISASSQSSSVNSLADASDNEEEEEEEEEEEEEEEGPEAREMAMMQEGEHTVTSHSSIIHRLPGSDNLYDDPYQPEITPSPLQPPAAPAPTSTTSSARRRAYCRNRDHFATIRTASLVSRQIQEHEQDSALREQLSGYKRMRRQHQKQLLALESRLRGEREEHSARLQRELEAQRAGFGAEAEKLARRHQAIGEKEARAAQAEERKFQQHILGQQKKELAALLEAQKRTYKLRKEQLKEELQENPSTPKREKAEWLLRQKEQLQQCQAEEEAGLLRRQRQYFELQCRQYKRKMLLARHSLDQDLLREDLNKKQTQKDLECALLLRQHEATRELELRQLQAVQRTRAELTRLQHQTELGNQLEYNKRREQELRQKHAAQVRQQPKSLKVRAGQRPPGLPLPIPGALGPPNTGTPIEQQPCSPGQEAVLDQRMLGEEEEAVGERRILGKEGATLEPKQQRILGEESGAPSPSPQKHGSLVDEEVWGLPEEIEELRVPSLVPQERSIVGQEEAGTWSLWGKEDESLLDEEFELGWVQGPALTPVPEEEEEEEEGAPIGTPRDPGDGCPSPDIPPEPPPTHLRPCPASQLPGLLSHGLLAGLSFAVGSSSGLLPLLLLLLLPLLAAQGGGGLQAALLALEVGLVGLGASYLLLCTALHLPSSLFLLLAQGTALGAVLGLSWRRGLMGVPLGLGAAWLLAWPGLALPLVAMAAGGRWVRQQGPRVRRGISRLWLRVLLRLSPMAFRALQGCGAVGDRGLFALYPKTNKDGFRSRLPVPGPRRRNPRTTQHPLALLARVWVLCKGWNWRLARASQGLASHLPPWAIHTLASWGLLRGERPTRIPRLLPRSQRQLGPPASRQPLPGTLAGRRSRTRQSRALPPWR
UniProt Q15022: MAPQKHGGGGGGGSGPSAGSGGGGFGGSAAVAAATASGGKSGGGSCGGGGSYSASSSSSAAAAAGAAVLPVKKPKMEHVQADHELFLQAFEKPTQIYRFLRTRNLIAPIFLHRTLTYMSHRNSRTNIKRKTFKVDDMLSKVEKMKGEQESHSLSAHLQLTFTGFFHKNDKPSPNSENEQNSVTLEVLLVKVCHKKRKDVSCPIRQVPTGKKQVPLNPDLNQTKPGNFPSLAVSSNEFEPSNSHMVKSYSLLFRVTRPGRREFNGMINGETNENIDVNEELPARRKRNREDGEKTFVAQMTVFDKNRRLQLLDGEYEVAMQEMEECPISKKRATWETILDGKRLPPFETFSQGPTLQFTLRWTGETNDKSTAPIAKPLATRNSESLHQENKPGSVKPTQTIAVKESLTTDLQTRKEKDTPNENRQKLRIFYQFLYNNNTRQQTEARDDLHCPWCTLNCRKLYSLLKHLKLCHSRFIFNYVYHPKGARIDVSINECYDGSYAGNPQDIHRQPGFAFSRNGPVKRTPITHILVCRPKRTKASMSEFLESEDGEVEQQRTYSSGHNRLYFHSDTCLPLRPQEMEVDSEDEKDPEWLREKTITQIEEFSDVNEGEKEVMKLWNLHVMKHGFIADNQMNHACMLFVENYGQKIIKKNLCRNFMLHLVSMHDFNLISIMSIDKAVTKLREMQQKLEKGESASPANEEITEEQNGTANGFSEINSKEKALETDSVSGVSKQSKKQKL

This is one part of the list.

Compound in one assay: Cc1ccc(NC(=O)c2ccc(CN3CC[C@H](N(C)C)C3)c(C(F)(F)F)c2)cc1Nc1nccc(-c2cncnc2)n1 [bafetinib]
Briefly: log2 fold change, soluble protein after heating vs DMSO (PISA); higher = thermal stabilisation; K562 cells, 10 uM, 30 min; active = over 0.2 and 3.5 SD of the protein, either way, in both replicates (recomputed). A digest of the protocol: (§1)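 K562 cells at 2×10^6 cells/mL were treated with 10 μM compound for 30 min. Aliquots were heated for 3 min across 48°C-58°C, pooled, and extracted in PBS with 0.5% NP-40 at 4°C; soluble protein was the supernatant after 21,000xg for 90 min. Soluble protein was quantified by TMTpro 16plex LC-MS/MS with channel sums equalised, and reported as log2 fold change in thermal stability against DMSO controls, with values from duplicates.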
Consider STK36 (UniProt Q9NRP7), for which the log2 fold change was inactive: -0.122.
Same read-out and setting: the figure for SUPT7L (UniProt O94864) is inactive: -0.033; for SYK (UniProt P43405) it is inactive: 0.276.
Still for that read-out and setting: the figure for STS (UniProt P08842) is inactive: -0.035.
Consider SUSD1 isoform 2 (UniProt Q6UWL2), for which the log2 fold change was inactive: -0.068.
The same measure, in the same setting: the figure for SUFU (UniProt Q9UMX1) is inactive: 0.029; for TACC2 (UniProt O95359) it is inactive: -0.044; for TAF5L (UniProt O75529) it is inactive: -0.199.
On the same count and under the same terms, the figure for SYTL4 (UniProt Q96C24) is inactive: 0.04.
On the same count and under the same terms, the figure for TAF11 (UniProt Q15544) is inactive: -0.03; for SYP (UniProt P08247) it is inactive: -0.041; for STRN3 isoform 2 (UniProt Q13033) it is inactive: -0.093.
For SUGT1 isoform 2 (UniProt Q9Y2Z0), the log2 fold change is inactive: 0.037.
As to SVBP (UniProt Q8N300), the log2 fold change is inactive: -0.04.
Same read-out and setting: the figure for SULT1E1 (UniProt P49888) is inactive: -0.109; for STRIP2 (UniProt Q9ULQ0) it is inactive: 0.011.
For TBC1D10A (UniProt Q9BXI6), the log2 fold change is inactive: -0.134.

Compound in a further assay: Cc1cccc(CC(=O)N2CCc3c2ccc(-c2cn(C)c4ncnc(N)c24)c3F)n1
Described as above. A digest of the protocol: as §1
As for STK36 (UniProt Q9NRP7), the log2 fold change is inactive: -0.065.
Same read-out and setting: the figure for STON2 isoform 3 (UniProt Q8WXE9) is inactive: -0.087; for SYS1 (UniProt Q8N2H4) it is inactive: 0.107.
Same read-out and setting: the figure for SUSD1 isoform 2 (UniProt Q6UWL2) is inactive: 0.031.
The same measure, in the same setting: the figure for TACC2 (UniProt O95359) is inactive: 0.011; for TAF6L (UniProt Q9Y6J9) it is inactive: -0.078.
TAOK2 (UniProt Q9UL54): the log2 fold change was inactive: 0.092.
For the target TAF13 (UniProt Q15543), the log2 fold change was inactive: -0.155.
On the same count and under the same terms, the figure for TAF11 (UniProt Q15544) is inactive: -0.02; for SYP (UniProt P08247) it is inactive: 0.
Still for that read-out and setting: the figure for STRN3 isoform 2 (UniProt Q13033) is inactive: 0.036; for TAF5 (UniProt Q15542) it is inactive: 0.052.
In the case of STYX (UniProt Q8WUJ0), the log2 fold change was inactive: -0.114.
Same read-out and setting: the figure for SVBP (UniProt Q8N300) is inactive: -0.025.
Turning to SULT1E1 (UniProt P49888), the log2 fold change is inactive: -0.079.
In the case of STRIP2 (UniProt Q9ULQ0), the log2 fold change was inactive: -0.1.
The same measure, in the same setting: the figure for TBC1D10A (UniProt Q9BXI6) is inactive: -0.078.

Compound in another assay: Cc1cn(-c2cc(NC(=O)c3ccc(C)c(Nc4nccc(-c5cccnc5)n4)c3)cc(C(F)(F)F)c2)cn1 [nilotinib]
The description is as above. A digest of the protocol: as §1
Take STK36 (UniProt Q9NRP7): the log2 fold change was inactive: 0.095.
Same read-out and setting: the figure for SUPT7L (UniProt O94864) is inactive: 0.185; for STON2 isoform 3 (UniProt Q8WXE9) it is inactive: 0.089.
On the same count and under the same terms, the figure for SUSD1 isoform 2 (UniProt Q6UWL2) is inactive: -0.049; for TASP1 (UniProt Q9H6P5) it is inactive: 0.088.
The same measure, in the same setting: the figure for TACC2 (UniProt O95359) is inactive: 0.027; for STK35 (UniProt Q8TDR2) it is inactive: 0.123; for TAF6L (UniProt Q9Y6J9) it is inactive: 0.032.
For SUGP2 (UniProt Q8IX01), the log2 fold change was inactive: -0.025.
Same read-out and setting: the figure for SYTL4 (UniProt Q96C24) is inactive: -0.013; for TAOK2 (UniProt Q9UL54) it is inactive: -0.032; for SYP (UniProt P08247) it is inactive: -0.053.
Same read-out and setting: the figure for STRN3 isoform 2 (UniProt Q13033) is inactive: 0.019; for SUZ12 (UniProt Q15022) it is inactive: -0.081; for SULT1E1 (UniProt P49888) it is inactive: 0.015.
Same read-out and setting: the figure for STRIP2 (UniProt Q9ULQ0) is inactive: -0.032.

Compound in another assay: Cc1nc(Nc2n[nH]c3c2CN(C(=O)N[C@H](CN(C)C)c2ccccc2)C3(C)C)c2sccc2n1
Described as above. An outline of the steps: as §1
As to STK36 (UniProt Q9NRP7), the log2 fold change was inactive: -0.012.
Same read-out and setting: the figure for SUPT7L (UniProt O94864) is inactive: -0.147; for STON2 isoform 3 (UniProt Q8WXE9) it is inactive: -0.007; for SUSD1 isoform 2 (UniProt Q6UWL2) it is inactive: 0.072.
On the same count and under the same terms, the figure for TASP1 (UniProt Q9H6P5) is inactive: 0.062; for TACC2 (UniProt O95359) it is inactive: 0.073.
Consider STK35 (UniProt Q8TDR2), for which the log2 fold change was inactive: 0.523.
The same measure, in the same setting: the figure for TAF6L (UniProt Q9Y6J9) is inactive: -0.048.
Same read-out and setting: the figure for SUGP2 (UniProt Q8IX01) is inactive: -0.059; for SYTL4 (UniProt Q96C24) it is inactive: -0.045.
The same measure, in the same setting: the figure for TAOK2 (UniProt Q9UL54) is inactive: 0.048; for SYP (UniProt P08247) it is inactive: 0.016; for STRN3 isoform 2 (UniProt Q13033) it is inactive: -0.013.
On to SUZ12 (UniProt Q15022), for which the log2 fold change is inactive: 0.028.
Same read-out and setting: the figure for SULT1E1 (UniProt P49888) is inactive: 0.038.
In the case of STRIP2 (UniProt Q9ULQ0), the log2 fold change is inactive: 0.084.

Compound in the next assay: Cc1nc(Nc2ncc(C(=O)Nc3c(C)cccc3Cl)s2)cc(N2CCN(CCO)CC2)n1 [dasatinib]
Described as above. An outline of the steps: as §1
For the target STK36 (UniProt Q9NRP7), the log2 fold change was inactive: -0.293.
Same read-out and setting: the figure for STK40 isoform 4 (UniProt Q8N2I9) is inactive: -0.209.
For SYK (UniProt P43405), the log2 fold change is inactive: -0.356.
As to SYS1 (UniProt Q8N2H4), the log2 fold change was inactive: -0.149.
In the case of SUSD1 isoform 2 (UniProt Q6UWL2), the log2 fold change is inactive: 0.082.
Regarding TACC2 (UniProt O95359), the log2 fold change is inactive: 0.059.
The same measure, in the same setting: the figure for TAF6L (UniProt Q9Y6J9) is inactive: -0.224; for SYTL4 (UniProt Q96C24) it is inactive: -0.228; for TAF13 (UniProt Q15543) it is inactive: -0.103.
On the same count and under the same terms, the figure for TAF11 (UniProt Q15544) is inactive: -0.039; for SYP (UniProt P08247) it is inactive: 0.019; for SUGT1 isoform 2 (UniProt Q9Y2Z0) it is inactive: 0.109.
The same measure, in the same setting: the figure for SUZ12 (UniProt Q15022) is inactive: 0.047; for TAZ (UniProt Q16635) it is inactive: -0.093.
For STYX (UniProt Q8WUJ0), the log2 fold change was inactive: -0.166.
On the same count and under the same terms, the figure for SVBP (UniProt Q8N300) is inactive: 0.017; for STRIP2 (UniProt Q9ULQ0) it is inactive: -0.106.
Still for that read-out and setting: the figure for TBC1D10A (UniProt Q9BXI6) is inactive: -0.32.
